No constants are given. Whether binding was seen depends on the method and setting. Some entries that bind do so weakly or less than the wild type.
Assays:
[1] = biological target: T1, fibrinogen (purified from fresh plasma, fibronectin-free) (human) (UniProt P02671+P02675); assay: affinity chromatography and immunoprecipitation
[2] = biological target: T1, fibrinogen (purified from fresh plasma, fibronectin-free) (human); assay: fibrinogen Sepharose chromatography of HUVEC lysate precleared on RGD Sepharose
[3] = biological target: T1, fibrinogen (purified from fresh plasma, fibronectin-free) (human); assay: affinity chromatography of 125I-labelled HUVEC lysate on fibrinogen Sepharose, RGE, RGD then EDTA elution
[4] = biological target: T1, fibrinogen (purified from fresh plasma, fibronectin-free) (human); assay: affinity chromatography on fibrinogen Sepharose
[5] = biological target: T1, fibrinogen (purified from fresh plasma, fibronectin-free) (human); assay: affinity chromatography of 125I-labelled HUVEC lysate on fibrinogen Sepharose, elution with RGD peptide
[6] = biological target: intercellular adhesion molecule 1 (ICAM-1), the RGD-independent fibrinogen receptor, native, on the surface of cells (HUVEC, JY lymphocytes) (human) (UniProt P05362); assay: 125I-fibrinogen on untreated, TNF- or LPS-stimulated HUVEC monolayers

Protein sequences, listed by entry. Tags and fused reporters are not part of them. Lines headed by an entry give the natural chain unless they say otherwise; changes in a name come on top. Residues count along the entry.
UniProt P02671: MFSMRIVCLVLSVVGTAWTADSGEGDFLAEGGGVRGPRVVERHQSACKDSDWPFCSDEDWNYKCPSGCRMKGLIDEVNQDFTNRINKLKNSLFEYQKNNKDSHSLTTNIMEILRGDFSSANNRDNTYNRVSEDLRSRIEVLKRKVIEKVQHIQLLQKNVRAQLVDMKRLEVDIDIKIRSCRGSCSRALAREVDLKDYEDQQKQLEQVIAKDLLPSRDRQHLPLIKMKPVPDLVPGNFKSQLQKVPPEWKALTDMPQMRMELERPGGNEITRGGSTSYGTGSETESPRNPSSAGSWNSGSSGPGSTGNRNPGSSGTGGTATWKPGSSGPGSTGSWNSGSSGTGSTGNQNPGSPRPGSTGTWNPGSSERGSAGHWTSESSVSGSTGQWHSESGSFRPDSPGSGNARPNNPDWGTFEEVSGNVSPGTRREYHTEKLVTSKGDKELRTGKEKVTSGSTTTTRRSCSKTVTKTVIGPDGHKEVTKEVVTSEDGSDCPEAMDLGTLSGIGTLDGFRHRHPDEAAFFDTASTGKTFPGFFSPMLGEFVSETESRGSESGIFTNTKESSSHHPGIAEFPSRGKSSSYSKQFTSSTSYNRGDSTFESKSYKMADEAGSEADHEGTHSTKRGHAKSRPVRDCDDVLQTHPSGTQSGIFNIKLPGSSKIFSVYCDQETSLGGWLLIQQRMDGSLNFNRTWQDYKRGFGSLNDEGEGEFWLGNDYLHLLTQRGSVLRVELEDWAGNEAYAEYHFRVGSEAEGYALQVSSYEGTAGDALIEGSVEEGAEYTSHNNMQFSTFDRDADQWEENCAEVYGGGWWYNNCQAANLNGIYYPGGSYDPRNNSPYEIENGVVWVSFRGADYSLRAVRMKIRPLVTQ
UniProt P02675: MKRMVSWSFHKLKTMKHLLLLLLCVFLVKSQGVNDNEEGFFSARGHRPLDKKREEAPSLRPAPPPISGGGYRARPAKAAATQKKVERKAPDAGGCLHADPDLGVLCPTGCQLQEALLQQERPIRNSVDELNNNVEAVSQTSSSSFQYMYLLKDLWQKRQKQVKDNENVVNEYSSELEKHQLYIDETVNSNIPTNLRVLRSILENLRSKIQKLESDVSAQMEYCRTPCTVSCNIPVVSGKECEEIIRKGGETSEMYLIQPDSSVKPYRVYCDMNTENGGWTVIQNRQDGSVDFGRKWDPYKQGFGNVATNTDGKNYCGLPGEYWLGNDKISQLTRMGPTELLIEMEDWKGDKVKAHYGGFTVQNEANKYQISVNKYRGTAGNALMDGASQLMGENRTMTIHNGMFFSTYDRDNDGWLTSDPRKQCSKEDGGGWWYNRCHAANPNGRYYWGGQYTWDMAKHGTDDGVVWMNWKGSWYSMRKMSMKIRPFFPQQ
UniProt P05362, residues 28-532: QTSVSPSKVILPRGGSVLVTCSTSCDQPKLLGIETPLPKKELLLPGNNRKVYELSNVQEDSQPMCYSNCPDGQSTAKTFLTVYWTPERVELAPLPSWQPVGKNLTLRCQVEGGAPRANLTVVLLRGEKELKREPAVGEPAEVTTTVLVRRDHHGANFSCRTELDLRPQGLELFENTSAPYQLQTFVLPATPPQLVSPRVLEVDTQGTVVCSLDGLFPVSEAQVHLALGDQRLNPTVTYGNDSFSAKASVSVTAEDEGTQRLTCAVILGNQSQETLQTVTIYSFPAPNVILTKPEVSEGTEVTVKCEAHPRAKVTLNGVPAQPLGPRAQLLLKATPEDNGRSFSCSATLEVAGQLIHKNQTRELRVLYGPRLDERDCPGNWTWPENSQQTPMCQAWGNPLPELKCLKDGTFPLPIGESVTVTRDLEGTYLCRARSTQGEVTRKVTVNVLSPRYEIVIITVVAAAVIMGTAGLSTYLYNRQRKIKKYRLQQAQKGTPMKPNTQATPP
UniProt P06756: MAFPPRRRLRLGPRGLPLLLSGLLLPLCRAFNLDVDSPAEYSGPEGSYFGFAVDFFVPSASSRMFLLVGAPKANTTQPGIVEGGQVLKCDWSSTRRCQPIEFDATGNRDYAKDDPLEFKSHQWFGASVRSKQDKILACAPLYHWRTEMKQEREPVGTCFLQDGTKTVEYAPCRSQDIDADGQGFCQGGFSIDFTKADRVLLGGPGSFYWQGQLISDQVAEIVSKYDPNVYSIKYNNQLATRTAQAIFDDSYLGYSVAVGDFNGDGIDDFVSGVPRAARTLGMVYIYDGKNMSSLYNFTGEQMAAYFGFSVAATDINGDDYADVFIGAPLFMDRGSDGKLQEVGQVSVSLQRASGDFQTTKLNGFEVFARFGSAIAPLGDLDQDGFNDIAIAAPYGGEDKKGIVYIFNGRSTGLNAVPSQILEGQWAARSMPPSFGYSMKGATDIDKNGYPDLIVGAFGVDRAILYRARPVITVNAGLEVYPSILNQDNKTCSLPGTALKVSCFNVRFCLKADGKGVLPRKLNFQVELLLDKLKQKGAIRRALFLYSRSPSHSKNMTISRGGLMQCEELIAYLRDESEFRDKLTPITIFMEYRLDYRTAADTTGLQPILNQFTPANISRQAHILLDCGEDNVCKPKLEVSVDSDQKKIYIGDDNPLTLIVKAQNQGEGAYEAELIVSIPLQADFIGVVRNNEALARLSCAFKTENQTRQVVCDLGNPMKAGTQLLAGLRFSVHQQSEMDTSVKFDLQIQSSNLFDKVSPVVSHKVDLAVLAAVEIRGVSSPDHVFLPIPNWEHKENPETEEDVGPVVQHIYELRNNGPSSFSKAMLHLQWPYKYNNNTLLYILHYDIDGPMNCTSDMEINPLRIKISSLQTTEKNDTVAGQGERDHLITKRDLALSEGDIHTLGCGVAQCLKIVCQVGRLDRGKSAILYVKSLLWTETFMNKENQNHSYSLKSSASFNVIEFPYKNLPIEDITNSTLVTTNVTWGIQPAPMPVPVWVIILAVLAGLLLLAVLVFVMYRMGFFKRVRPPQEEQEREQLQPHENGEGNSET

In the case of “purified endothelial cell receptor (ECR), 90-95 kD, identified as ICAM-1, detergent-solubilised from HUVEC (also the 90-95 kD band of HUVEC and Daudi cell lysates on Western blots) (from UniProt P05362 28-532)”, the binding [1] is reported as “binds”, the binding [2] is reported as “binds” and the binding [3] is reported as “binds”.

“vitronectin receptor, alpha v/beta 3, from HUVEC lysate (from UniProt P06756 31-1048; P05106 27-788)” was tested, and the binding [4] was “binds” and the binding [5] was “binds”.

With “fibrinogen (purified from fresh plasma, fibronectin-free) (from UniProt P02671 20-629; P02675 31-491) (ligand)” the binding [6] was “binds”.

From patent US20020131970A1 (Scripps Research, published 2002)
